These are yes or no findings as the source states them, for the method shown. In cells and extracts the contact can be indirect. Some entries that bind do so weakly or less than the wild type. Tags and fused reporters may be left off the sequences shown.
What was measured:
[1] = molecular target: T1, MBP-fused MYB21 (Arabidopsis thaliana) (UniProt Q9LK95); assay: pull-down; purified MBP, MBP-MYB21 or MBP-MYB24 held on amylose resin beads, incubated 2 h at 4 °C with concentrated total protein of TAP-RGA, TAP-RGL1 or TAP-RGL2 transgenic seedlings in RB buffer (25 mM imidazole, 100 mM NaCl, 50 mM Tris-Cl pH 7.8, 0.1% Tween20, 10% glycerol, 20 mM 2-mercaptoethanol); immunoblot with anti-c-myc antibody; only the target purified
T1 sequence: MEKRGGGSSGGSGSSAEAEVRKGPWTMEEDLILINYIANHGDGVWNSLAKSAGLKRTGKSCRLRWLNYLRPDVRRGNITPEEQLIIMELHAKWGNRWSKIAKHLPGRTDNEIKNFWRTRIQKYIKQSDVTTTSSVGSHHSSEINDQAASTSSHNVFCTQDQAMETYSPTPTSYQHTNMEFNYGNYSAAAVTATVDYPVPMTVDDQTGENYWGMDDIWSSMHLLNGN

[2] = molecular target: T2, MBP-fused MYB24 (Arabidopsis thaliana) (UniProt Q9SPG9); assay: as above
T2 sequence: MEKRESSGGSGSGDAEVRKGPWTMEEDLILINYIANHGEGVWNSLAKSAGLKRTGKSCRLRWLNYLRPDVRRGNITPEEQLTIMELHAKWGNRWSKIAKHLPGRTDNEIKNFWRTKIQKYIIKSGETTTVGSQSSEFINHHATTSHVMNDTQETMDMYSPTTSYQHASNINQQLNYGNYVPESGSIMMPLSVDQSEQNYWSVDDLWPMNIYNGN

B1: tandem affinity purification (TAP) tag-fused RGL1 (protein, UniProt Q9C8Y3 1-511)
chain: MKREHNHRESSAGEGGSSSMTTVIKEEAAGVDELLVVLGYKVRSSDMADVAHKLEQLEMVLGDGISNLSDETVHYNPSDLSGWVESMLSDLDPTRIQEKPDSEYDLRAIPGSAVYPRDEHVTRRSKRTRIESELSSTRSVVVLDSQETGVRLVHALLACAEAVQQNNLKLADALVKHVGLLASSQAGAMRKVATYFAEGLARRIYRIYPRDDVALSSFSDTLQIHFYESCPYLKFAHFTANQAILEVFATAEKVHVIDLGLNHGLQWPALIQALALRPNGPPDFRLTGIGYSLTDIQEVGWKLGQLASTIGVNFEFKSIALNNLSDLKPEMLDIRPGLESVAVNSVFELHRLLAHPGSIDKFLSTIKSIRPDIMTVVEQEANHNGTVFLDRFTESLHYYSSLFDSLEGPPSQDRVMSELFLGRQILNLVACEGEDRVERHETLNQWRNRFGLGGFKPVSIGSNAYKQASMLLALYAGADGYNVEENEGCLLLGWQTRPLIATSAWRINRVE
Which results are given for B1?
binding [1]: binds; binding [2]: binds
